Assay results: patent EP0212531A1, “Bovine growth hormone releasing factor derivative” (SYNTEX (U.S.A.) INC., priority 1985, dated 1987)
“Also recorded” adds a separate entry of the source. At least one peptide structure holds a part that was inferred or is arguable (an end, a ring closure or a residue).

Legend:
[1] = tested on: specific receptors for HuGRF-NH2; test: Binding assay: competition with [125I]-HuGRF(1-44) on GH3 cells; details: GH3 rat pituitary tumor cells, 4°C, one hour, displacement of [125I]-HuGRF(1-44)
[2] = tested on: Normal rat anterior pituitary cells; test: Growth hormone secretion assay in primary pituitary cell cultures; type: cell-based; details: pituitary cells in culture; 3 hours at 37°C, GH in medium by RIA
[3] = tested on: growth hormone (GH) secretion; test: GH secretion in cattle after pulse intravenous injection; type: in vivo, Holstein calves; details: calves; for AUC120: area under the GH-time curve, 120 min; for Peak amplitude / Time of peaks: plasma GH; for Peak amplitude: mean preinjection GH 6.9 ng/ml; for Time of peaks: means of animals which responded
GH secretion = GH secretion in swine during continuous intravenous infusion; type: in vivo, white crossbred female pigs
[4] = Biological activity of purified recombinant GRF analogs, stated in general terms (criteria: adenylate cyclase stimulation and GH release); details: purified recombinant material after CNBr cleavage and HPLC
[5] = plasma GH, i.v. infusion 1 ug/kgBW for seven hours
[6] = versus saline control, 7 hours of infusion

CC[C@H](C)[C@H](NC(=O)[C@H](C)NC(=O)[C@H](CC(=O)O)NC(=O)[C@H](C)NC(=O)[C@@H](N)Cc1ccc(O)cc1)C(=O)N[C@@H](Cc1ccccc1)C(=O)N[C@H](C(=O)N[C@@H](CC(N)=O)C(=O)N[C@@H](CO)C(=O)N[C@@H](Cc1ccc(O)cc1)C(=O)N[C@@H](CCCNC(=N)N)C(=O)N[C@@H](CCCCN)C(=O)N[C@H](C(=O)N[C@@H](CC(C)C)C(=O)NCC(=O)N[C@@H](CCC(N)=O)C(=O)N[C@@H](CC(C)C)C(=O)N[C@@H](CO)C(=O)N[C@@H](C)C(=O)N[C@@H](CCCNC(=N)N)C(=O)N[C@@H](CCCCN)C(=O)N[C@@H](CC(C)C)C(=O)N[C@@H](CC(C)C)C(=O)N[C@@H](CCC(N)=O)C(=O)N[C@@H](CC(=O)O)C(=O)N[C@H](C(=O)N[C@@H](CC(C)C)C(=O)N[C@@H](CC(N)=O)C(=O)N[C@@H](CCCNC(=N)N)C(=O)N[C@@H](CCC(N)=O)C(=O)N[C@@H](CCC(N)=O)C(=O)NCC(=O)N[C@@H](CCC(=O)O)C(=O)N[C@@H](CCCNC(=N)N)C(=O)N[C@@H](CC(N)=O)C(=O)N[C@@H](CCC(N)=O)C(=O)N[C@@H](CCC(=O)O)C(=O)N[C@@H](CCC(N)=O)C(=O)NCC(=O)N[C@@H](C)C(=O)N[C@@H](CCCCN)C(=O)N[C@H](C(=O)N[C@@H](CCCNC(=N)N)C(=O)N[C@@H](CC(C)C)C(=O)O)C(C)C)[C@@H](C)CC)C(C)C)[C@@H](C)O [BGRFLeu27]
specific binding to pituitary cells [1]: active | release of GH from pituitary cells [2]: potent and efficacious | AUC values versus dose ([3]; .15 and .45 ug/kg): increased in proportion to the dose | GH in plasma after injection ([3]; .15 and .45 ug/kg doses, from preinjection 6.9 ng/ml, within approximately 30 minutes): more than 50 ng/ml | AUC120 ([3]; .15 µg/kg BW pulse i.v.): 2125 ng·min/mL | Peak amplitude ([3]; .15 µg/kg BW pulse i.v.): 60.9 ng/mL | Time of peaks ([3]; .15 µg/kg BW pulse i.v.): 25 min | Number of responses ([3]; .15 µg/kg BW pulse intravenous injection): 6/6 | AUC120 ([3]; .45 µg/kg BW pulse i.v.): 2668 ng·min/mL | Peak amplitude ([3]; .45 µg/kg BW pulse i.v.): 56.5 ng/mL | Time of peaks ([3]; .45 µg/kg BW pulse i.v.): 30 min | Number of responses ([3]; .45 µg/kg BW pulse intravenous injection): 6/6 | release of GH after pulse injection ([3]; both .15 and .45 ug/kgBW): caused release of GH following every injection | Total AUC (GH secretion; infusion 1 ug/kgBW for seven hours, total area under the GH response curve including baseline): 100.8 ng·h/mL | Baseline (GH secretion; [5]): 8.1 ng/mL | Number of peaks (GH secretion; [5]): 1.0 | Peak amplitude (GH secretion; [5]): 56.2 ng/mL | Area of peaks (GH secretion; plasma GH, infusion 1 ug/kgBW for seven hours, average area of individual peaks above baseline): 2190.3 ng·min/mL | change of total area under the GH response curve (GH secretion; [6]): more than doubled | increase in the amplitude of the GH peaks (GH secretion; [6]): four-fold increase | increase in the area of individual peaks (GH secretion; [6]): approximately 7 fold | biological activity [4]: biologically active

CC[C@H](C)[C@H](NC(=O)[C@H](C)NC(=O)[C@H](CC(=O)O)NC(=O)[C@H](C)NC(=O)[C@@H](N)Cc1ccc(O)cc1)C(=O)N[C@@H](Cc1ccccc1)C(=O)N[C@H](C(=O)N[C@@H](CC(N)=O)C(=O)N[C@@H](CO)C(=O)N[C@@H](Cc1ccc(O)cc1)C(=O)N[C@@H](CCCNC(=N)N)C(=O)N[C@@H](CCCCN)C(=O)N[C@H](C(=O)N[C@@H](CC(C)C)C(=O)NCC(=O)N[C@@H](CCC(N)=O)C(=O)N[C@@H](CC(C)C)C(=O)N[C@@H](CO)C(=O)N[C@@H](C)C(=O)N[C@@H](CCCNC(=N)N)C(=O)N[C@@H](CCCCN)C(=O)N[C@@H](CC(C)C)C(=O)N[C@@H](CC(C)C)C(=O)N[C@@H](CCC(N)=O)C(=O)N[C@@H](CC(=O)O)C(=O)N[C@H](C(=O)N[C@@H](CC(C)C)C(=O)N[C@@H](CO)C(=O)N[C@@H](CCCNC(=N)N)C(=O)N[C@@H](CCC(N)=O)C(=O)N[C@@H](CCC(N)=O)C(=O)NCC(=O)N[C@@H](CCC(=O)O)C(=O)N[C@@H](CO)C(=O)N[C@@H](CC(N)=O)C(=O)N[C@@H](CCC(N)=O)C(=O)N[C@@H](CCC(=O)O)C(=O)N[C@@H](CCCNC(=N)N)C(=O)NCC(=O)N[C@@H](C)C(=O)N[C@@H](CCCNC(=N)N)C(=O)N[C@@H](C)C(=O)N[C@@H](CCCNC(=N)N)C(=O)N[C@@H](CC(C)C)C(=O)O)[C@@H](C)CC)C(C)C)[C@@H](C)O [HuGRFLeu27]
release of GH from pituitary cells [2]: stimulate | biological activity [4]: activity comparable to BGRFLeu27 and PGRFLeu27

CC[C@H](C)[C@H](NC(=O)[C@H](C)NC(=O)[C@H](CC(=O)O)NC(=O)[C@H](C)NC(=O)[C@@H](N)Cc1ccc(O)cc1)C(=O)N[C@@H](Cc1ccccc1)C(=O)N[C@H](C(=O)N[C@@H](CC(N)=O)C(=O)N[C@@H](CO)C(=O)N[C@@H](Cc1ccc(O)cc1)C(=O)N[C@@H](CCCNC(=N)N)C(=O)N[C@@H](CCCCN)C(=O)N[C@H](C(=O)N[C@@H](CC(C)C)C(=O)NCC(=O)N[C@@H](CCC(N)=O)C(=O)N[C@@H](CC(C)C)C(=O)N[C@@H](CO)C(=O)N[C@@H](C)C(=O)N[C@@H](CCCNC(=N)N)C(=O)N[C@@H](CCCCN)C(=O)N[C@@H](CC(C)C)C(=O)N[C@@H](CC(C)C)C(=O)N[C@@H](CCC(N)=O)C(=O)N[C@@H](CC(=O)O)C(=O)N[C@H](C(=O)N[C@@H](CC(C)C)C(=O)N[C@@H](CO)C(=O)N[C@@H](CCCNC(=N)N)C(=O)N[C@@H](CCC(N)=O)C(=O)N[C@@H](CCC(N)=O)C(=O)NCC(=O)N[C@@H](CCC(=O)O)C(=O)N[C@@H](CCCNC(=N)N)C(=O)N[C@@H](CC(N)=O)C(=O)N[C@@H](CCC(N)=O)C(=O)N[C@@H](CCC(=O)O)C(=O)N[C@@H](CCC(N)=O)C(=O)NCC(=O)N[C@@H](C)C(=O)N[C@@H](CCCNC(=N)N)C(=O)N[C@H](C(=O)N[C@@H](CCCNC(=N)N)C(=O)N[C@@H](CC(C)C)C(=O)O)C(C)C)[C@@H](C)CC)C(C)C)[C@@H](C)O [PGRFLeu27]
biological activity [4]: comparable to that described for BGRFLeu27; also recorded: biologically active
